Results on 38 targets are retold here after the supplement of paper PMC7666118.

The chains behind the UniProt entries cited, without tags or fusion partners. Where a name states a change or a piece, a line headed by the entry shows the natural chain unless it says otherwise.
UniProt Q16698: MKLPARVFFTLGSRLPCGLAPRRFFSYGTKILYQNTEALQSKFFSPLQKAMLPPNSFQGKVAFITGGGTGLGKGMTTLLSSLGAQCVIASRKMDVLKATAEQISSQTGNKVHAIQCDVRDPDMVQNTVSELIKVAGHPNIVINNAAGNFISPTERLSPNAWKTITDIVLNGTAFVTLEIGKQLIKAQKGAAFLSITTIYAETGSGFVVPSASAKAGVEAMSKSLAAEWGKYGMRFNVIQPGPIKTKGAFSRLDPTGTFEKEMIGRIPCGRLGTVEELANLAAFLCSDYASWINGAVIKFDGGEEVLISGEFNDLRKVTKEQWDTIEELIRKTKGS
UniProt O00273: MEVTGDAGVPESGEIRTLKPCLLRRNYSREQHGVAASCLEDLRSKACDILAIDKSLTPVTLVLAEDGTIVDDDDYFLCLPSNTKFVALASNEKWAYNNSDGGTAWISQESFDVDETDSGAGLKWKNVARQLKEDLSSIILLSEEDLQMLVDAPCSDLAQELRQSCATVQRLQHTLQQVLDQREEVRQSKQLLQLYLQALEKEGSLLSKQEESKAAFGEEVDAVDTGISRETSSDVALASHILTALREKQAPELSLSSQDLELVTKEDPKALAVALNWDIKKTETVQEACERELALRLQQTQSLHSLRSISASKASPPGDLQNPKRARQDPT
UniProt P13498: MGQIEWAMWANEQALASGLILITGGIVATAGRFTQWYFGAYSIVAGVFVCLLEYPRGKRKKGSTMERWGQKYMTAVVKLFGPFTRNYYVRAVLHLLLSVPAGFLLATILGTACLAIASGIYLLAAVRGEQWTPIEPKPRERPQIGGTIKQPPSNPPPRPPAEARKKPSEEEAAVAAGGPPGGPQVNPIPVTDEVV
UniProt Q86VX2, whole entry: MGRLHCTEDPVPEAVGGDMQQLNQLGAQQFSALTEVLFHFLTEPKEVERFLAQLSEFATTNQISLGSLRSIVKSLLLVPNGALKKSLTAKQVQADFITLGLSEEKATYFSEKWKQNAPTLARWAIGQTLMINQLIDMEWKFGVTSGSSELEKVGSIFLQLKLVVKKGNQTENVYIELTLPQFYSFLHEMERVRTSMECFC
UniProt P00167, whole entry: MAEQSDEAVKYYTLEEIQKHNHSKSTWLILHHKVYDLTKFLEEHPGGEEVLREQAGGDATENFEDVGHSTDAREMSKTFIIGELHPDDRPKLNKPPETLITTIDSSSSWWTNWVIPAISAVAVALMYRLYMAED
UniProt P78310: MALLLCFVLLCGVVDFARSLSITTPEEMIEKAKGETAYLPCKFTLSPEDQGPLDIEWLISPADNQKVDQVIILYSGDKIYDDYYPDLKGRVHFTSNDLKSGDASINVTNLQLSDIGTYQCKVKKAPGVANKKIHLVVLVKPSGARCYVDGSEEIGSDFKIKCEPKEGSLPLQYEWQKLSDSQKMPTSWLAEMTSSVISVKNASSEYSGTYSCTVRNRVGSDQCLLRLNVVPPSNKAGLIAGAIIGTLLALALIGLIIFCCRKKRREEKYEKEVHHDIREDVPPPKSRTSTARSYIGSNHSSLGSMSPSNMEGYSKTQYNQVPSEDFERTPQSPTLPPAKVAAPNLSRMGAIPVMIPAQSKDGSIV
UniProt Q9UBM7: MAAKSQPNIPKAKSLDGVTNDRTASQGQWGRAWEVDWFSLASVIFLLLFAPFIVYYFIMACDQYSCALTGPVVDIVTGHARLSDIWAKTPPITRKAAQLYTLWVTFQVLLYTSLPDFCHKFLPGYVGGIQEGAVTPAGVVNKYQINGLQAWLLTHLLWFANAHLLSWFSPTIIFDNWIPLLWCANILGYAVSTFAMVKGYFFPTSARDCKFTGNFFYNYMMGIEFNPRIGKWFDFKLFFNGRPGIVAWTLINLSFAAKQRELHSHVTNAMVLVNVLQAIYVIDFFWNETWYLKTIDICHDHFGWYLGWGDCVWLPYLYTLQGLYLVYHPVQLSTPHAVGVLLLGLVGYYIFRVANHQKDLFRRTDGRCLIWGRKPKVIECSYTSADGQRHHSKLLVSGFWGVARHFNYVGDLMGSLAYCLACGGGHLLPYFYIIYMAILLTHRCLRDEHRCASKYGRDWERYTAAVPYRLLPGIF
UniProt P35659: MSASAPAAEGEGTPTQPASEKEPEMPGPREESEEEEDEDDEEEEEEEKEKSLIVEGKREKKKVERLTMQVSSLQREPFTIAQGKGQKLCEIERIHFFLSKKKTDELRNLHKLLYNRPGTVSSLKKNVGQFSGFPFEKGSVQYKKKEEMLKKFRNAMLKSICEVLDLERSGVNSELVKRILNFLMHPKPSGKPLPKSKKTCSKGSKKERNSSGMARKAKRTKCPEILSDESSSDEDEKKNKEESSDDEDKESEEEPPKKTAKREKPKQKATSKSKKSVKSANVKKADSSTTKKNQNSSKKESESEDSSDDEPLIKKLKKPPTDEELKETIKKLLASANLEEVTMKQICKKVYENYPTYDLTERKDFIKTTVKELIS
UniProt Q9UBW8: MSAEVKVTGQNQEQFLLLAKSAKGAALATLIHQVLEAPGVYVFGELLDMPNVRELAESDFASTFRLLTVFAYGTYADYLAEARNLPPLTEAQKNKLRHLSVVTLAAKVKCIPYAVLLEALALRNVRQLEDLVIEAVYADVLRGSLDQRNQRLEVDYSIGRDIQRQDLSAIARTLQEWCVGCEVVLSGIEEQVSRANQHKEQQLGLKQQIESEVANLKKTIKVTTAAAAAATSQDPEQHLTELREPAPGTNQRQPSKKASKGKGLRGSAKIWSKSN
UniProt P14406, whole entry: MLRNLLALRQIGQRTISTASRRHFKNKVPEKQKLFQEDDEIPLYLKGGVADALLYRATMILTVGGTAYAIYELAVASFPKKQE
UniProt Q6P158: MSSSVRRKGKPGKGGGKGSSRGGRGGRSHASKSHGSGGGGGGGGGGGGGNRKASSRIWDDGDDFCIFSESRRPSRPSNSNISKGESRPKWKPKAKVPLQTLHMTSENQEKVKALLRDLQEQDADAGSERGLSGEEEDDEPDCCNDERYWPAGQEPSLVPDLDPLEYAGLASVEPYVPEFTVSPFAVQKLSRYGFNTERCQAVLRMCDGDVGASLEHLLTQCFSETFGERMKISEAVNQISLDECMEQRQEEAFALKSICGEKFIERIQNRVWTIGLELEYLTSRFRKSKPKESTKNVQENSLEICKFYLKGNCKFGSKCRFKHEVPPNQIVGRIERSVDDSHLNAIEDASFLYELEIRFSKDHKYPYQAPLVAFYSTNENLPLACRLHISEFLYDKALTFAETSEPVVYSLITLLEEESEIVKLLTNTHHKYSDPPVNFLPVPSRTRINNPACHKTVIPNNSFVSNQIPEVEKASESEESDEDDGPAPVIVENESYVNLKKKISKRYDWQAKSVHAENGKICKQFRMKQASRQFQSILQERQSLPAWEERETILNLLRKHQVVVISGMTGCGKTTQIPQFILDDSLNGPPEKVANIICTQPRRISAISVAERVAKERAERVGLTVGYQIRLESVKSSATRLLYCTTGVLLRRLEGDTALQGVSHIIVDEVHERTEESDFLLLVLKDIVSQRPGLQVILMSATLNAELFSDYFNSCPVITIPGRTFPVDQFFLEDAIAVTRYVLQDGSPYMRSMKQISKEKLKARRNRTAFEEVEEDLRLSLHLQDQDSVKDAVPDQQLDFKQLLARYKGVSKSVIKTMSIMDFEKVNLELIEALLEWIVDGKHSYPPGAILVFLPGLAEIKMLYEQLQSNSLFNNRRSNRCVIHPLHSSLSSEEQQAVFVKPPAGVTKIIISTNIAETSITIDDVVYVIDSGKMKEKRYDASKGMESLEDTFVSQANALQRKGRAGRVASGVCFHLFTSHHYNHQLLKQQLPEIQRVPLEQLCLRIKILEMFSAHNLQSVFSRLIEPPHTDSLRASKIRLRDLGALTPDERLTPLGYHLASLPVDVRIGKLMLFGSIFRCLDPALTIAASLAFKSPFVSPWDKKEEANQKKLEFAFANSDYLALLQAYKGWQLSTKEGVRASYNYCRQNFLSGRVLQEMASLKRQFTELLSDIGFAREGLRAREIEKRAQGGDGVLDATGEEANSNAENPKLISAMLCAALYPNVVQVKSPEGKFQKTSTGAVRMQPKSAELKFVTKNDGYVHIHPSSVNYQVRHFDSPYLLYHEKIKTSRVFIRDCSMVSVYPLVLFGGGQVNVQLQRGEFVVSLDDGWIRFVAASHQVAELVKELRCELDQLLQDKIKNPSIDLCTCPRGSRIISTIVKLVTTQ
UniProt Q13574: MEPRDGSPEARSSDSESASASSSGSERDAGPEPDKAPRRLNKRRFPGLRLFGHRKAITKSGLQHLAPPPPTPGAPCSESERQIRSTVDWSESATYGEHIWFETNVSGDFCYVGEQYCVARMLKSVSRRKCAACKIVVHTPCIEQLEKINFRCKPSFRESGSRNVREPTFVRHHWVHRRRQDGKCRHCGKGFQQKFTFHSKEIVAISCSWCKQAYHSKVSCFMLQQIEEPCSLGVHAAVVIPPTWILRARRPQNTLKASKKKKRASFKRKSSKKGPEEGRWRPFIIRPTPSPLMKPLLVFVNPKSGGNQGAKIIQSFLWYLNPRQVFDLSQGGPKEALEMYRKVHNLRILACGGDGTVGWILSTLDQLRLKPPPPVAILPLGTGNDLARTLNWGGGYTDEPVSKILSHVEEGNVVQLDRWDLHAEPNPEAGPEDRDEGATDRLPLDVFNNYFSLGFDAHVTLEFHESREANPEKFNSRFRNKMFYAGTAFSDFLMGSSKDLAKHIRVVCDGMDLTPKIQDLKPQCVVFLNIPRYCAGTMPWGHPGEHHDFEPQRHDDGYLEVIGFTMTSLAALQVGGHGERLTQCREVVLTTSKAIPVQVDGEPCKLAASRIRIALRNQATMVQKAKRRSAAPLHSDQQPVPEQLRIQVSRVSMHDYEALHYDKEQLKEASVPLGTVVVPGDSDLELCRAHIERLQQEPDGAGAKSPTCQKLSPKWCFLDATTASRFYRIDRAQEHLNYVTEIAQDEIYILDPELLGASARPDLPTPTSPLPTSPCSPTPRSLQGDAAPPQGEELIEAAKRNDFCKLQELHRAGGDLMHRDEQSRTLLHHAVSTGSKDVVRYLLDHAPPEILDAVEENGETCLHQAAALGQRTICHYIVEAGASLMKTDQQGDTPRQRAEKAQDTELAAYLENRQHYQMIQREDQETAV
UniProt O75064: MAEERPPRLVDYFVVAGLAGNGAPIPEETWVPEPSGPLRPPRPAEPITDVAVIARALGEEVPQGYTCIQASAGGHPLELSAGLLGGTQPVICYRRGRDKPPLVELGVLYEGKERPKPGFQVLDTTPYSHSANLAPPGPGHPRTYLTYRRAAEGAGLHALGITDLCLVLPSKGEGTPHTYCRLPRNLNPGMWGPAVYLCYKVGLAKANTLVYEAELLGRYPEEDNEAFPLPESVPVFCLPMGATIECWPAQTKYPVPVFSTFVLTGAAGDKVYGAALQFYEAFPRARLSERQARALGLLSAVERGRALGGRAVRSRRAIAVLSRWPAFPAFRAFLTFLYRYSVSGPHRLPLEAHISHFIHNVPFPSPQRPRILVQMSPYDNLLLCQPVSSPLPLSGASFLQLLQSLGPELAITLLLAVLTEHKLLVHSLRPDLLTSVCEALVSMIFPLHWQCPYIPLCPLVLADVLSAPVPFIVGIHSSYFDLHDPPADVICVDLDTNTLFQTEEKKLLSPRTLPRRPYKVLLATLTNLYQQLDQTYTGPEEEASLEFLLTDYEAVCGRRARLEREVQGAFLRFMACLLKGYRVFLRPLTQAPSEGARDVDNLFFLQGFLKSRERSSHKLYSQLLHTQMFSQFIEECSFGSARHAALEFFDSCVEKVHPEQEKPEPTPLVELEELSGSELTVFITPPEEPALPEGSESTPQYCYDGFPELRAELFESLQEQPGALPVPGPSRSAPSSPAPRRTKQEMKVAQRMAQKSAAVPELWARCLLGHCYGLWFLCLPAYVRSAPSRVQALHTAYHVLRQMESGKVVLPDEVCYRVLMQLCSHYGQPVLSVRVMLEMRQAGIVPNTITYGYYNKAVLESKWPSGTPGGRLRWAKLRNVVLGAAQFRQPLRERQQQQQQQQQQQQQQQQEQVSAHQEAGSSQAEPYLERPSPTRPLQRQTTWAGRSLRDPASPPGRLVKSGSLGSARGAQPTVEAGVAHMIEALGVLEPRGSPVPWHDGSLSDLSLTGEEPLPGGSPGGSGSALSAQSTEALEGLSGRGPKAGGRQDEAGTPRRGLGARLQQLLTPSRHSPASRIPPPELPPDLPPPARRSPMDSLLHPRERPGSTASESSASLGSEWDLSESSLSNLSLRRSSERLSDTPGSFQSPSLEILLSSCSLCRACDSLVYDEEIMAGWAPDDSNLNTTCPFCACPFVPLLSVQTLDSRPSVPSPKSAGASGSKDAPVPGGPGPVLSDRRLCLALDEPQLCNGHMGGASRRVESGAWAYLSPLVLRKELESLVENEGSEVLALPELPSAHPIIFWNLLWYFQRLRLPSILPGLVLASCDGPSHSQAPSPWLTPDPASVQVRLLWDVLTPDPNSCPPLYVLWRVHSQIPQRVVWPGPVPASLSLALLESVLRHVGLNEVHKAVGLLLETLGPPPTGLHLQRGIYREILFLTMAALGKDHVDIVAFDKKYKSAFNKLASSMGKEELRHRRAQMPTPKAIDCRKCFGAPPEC

The list shows a part of the results.

Compound in the assay: COc1ccc(Cn2ccc3ccc(C(=O)NO)cc32)cc1
In words: dose-dependent thermal stabilisation call (2D-TPP, DLPTP, 10% FDR) (binary (1 = stabilised)); higher = stabilised by the compound. The note with it: system: HL-60 intact cells; concentration range 0.04-10 µM.
DECR1 (UniProt Q16698): the “dose-dependent thermal stabilisation call” value was inactive: 0. Turning to DFFA (UniProt O00273), the “dose-dependent thermal stabilisation call” value was inactive: 0. On to CYBA (UniProt P13498), for which the “dose-dependent thermal stabilisation call” value was inactive: 0. In the case of COMMD4 (UniProt Q9H0A8), the “dose-dependent thermal stabilisation call” value was inactive: 0. With COMMD7 (UniProt Q86VX2), the “dose-dependent thermal stabilisation call” value was inactive: 0. With CYB5A (UniProt P00167) the figure was inactive: 0; with COX6C (UniProt P09669), inactive: 0; with CXADR (UniProt P78310), inactive: 0. DHCR7 (UniProt Q9UBM7): the “dose-dependent thermal stabilisation call” value was inactive: 0. Next, DHFR (UniProt P00374): inactive: 0; DEK (UniProt P35659): inactive: 0.

Regarding COPS7A (UniProt Q9UBW8), the “dose-dependent thermal stabilisation call” value is inactive: 0. Next, DHX36 (UniProt Q9H2U1): inactive: 0. Next, CWF19L2 (UniProt Q2TBE0): inactive: 0; DAP3 (UniProt P51398): inactive: 0; CTSC (UniProt P53634): inactive: 0. With DCP1B (UniProt Q8IZD4) the figure was inactive: 0.

Regarding CRTC2 (UniProt Q53ET0), the “dose-dependent thermal stabilisation call” value was inactive: 0. As to COX7A2 (UniProt P14406), the “dose-dependent thermal stabilisation call” value is inactive: 0. For the target DDX17 (UniProt Q92841), the “dose-dependent thermal stabilisation call” value was inactive: 0.

DAD1 (UniProt P61803): the “dose-dependent thermal stabilisation call” value is inactive: 0. Turning to DHRS1 (UniProt Q96LJ7), the “dose-dependent thermal stabilisation call” value was active: 1. In the case of DIABLO (UniProt Q9NR28), the “dose-dependent thermal stabilisation call” value is inactive: 0. As for DBR1 (UniProt Q9UK59), the “dose-dependent thermal stabilisation call” value is active: 1. With DHX57 (UniProt Q6P158) the figure was inactive: 0; with DDX1 (UniProt Q92499), inactive: 0; with DARS (UniProt P14868), inactive: 0. Turning to CRYZ (UniProt Q08257), the “dose-dependent thermal stabilisation call” value is inactive: 0. For DEGS1 (UniProt O15121), the “dose-dependent thermal stabilisation call” value is inactive: 0. Next, DGKZ (UniProt Q13574): inactive: 0. Next, DDX5 (UniProt P17844): inactive: 0; DCTN4 (UniProt Q9UJW0): inactive: 0.

In the case of DGCR14 (UniProt Q96DF8), the “dose-dependent thermal stabilisation call” value is inactive: 0. With COX17 (UniProt Q14061) the figure was inactive: 0. For the target DENND4B (UniProt O75064), the “dose-dependent thermal stabilisation call” value is inactive: 0. Take CTDSP1 (UniProt Q9GZU7): the “dose-dependent thermal stabilisation call” value is inactive: 0.

With DBN1 (UniProt Q16643), the “dose-dependent thermal stabilisation call” value was inactive: 0.

On to CUEDC2 (UniProt Q9H467), for which the “dose-dependent thermal stabilisation call” value was inactive: 0.
